{
  "source": "PubChem BioAssay AID2417",
  "about": "(National Center for Advancing Translational Sciences (NCATS), 2010)",
  "note": "Out of some 140,000 compounds screened, about 4,300 (3.1%) were called active. The shares of active, inactive and inconclusive entries below differ from those in the screen.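 Rule for the calls: active = readout at or below -70, meaning at least 70% loss of cells showing the perinucleolar compartment, a nuclear body marking cancer cells; inconclusive = readout between -30 and a set limit; inactive = the rest.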",
  "data": [
    {"assay": "High Content Assay for Compounds that inhibit the Assembly of the Perinucleolar Compartment;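 note: plate controls were DMSO wells for no effect and camptothecin positive control wells for full effect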", "settings": "PC3M PTB-GFP, PNC prevalence imaging, 16 h; at 10 µM; stronger effect = lower value", "in_short": "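Compounds are pinned in duplicate onto adhered PC3M cells stably expressing GFP-tagged PTB and incubated 16 h at 37 C. Cells are then fixed, nuclei stained with Hoechst, and PNC-positive cells counted.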", "values": [
      {"smiles": "COc1ccccc1C1=NCc2nnc(C)n2-c2ccc(Cl)cc21", "activity change (PNC), negative = inhibition": "inactive: 8.75%"},
      {"smiles": "O=C1NCN(c2ccccc2)C12CCNCC2", "activity change (PNC), negative = inhibition": "inconclusive: -51.1%"},
      {"smiles": "COc1ccc(/C=C/C(=O)c2c(O)n(CCC3=CCCCC3)c(=O)[nH]c2=O)cc1", "activity change (PNC), negative = inhibition": "inactive: -24.8%"},
      {"smiles": "O=C1CN=C(c2ccccc2)c2cc(Br)ccc2N1Cc1cc(=O)n2ccccc2n1", "activity change (PNC), negative = inhibition": "active: -87.7%"},
      {"smiles": "C=CCN1C(=O)NC(=O)/C(=C/c2cc3c4c(c2)CCCN4CCC3)C1=O", "activity change (PNC), negative = inhibition": "inconclusive: -50.8%"},
      {"smiles": "CCCCn1c(O)c(C(CC)=NC(C)c2ccccc2)c(=O)[nH]c1=O", "note": "(stereo unspecified)", "activity change (PNC), negative = inhibition": "inactive: 16.2%"},
      {"smiles": "CN1CCN(c2ccc(S(=O)(=O)C(F)(F)F)cc2[N+](=O)[O-])CC1", "activity change (PNC), negative = inhibition": "active: -98.1%"},
      {"smiles": "O=C1C2CCCN2C(c2cccnc2)N1c1ccc(Cl)cc1", "note": "(stereo unspecified)", "activity change (PNC), negative = inhibition": "inconclusive: -31.5%"},
      {"smiles": "Cc1ccc(C)c(OCC(=O)N2CCCN(C)CC2)c1", "activity change (PNC), negative = inhibition": "active: -112%"},
      {"smiles": "O=c1[nH]c(=O)n(Cc2ccccc2)c(O)c1C=Nc1ccc(CN2CCOCC2)cc1", "activity change (PNC), negative = inhibition": "inactive: 27.4%"},
      {"smiles": "COc1cccc(N2C(=O)NC(=O)C3(Cc4cc(C)ccc4N(C)C3)C2=O)c1", "note": "(stereo unspecified)", "activity change (PNC), negative = inhibition": "inconclusive: -67.4%"},
      {"smiles": "CN1CCN(c2ccc(C=O)cc2)CC1", "activity change (PNC), negative = inhibition": "inconclusive: -63.7%"},
      {"smiles": "CN1CCN(c2ccc(N)c(N3CCN(C)CC3)c2)CC1", "activity change (PNC), negative = inhibition": "inconclusive: -53%"},
      {"smiles": "CCCCCCOc1ccc(CN2CCN(CC)CC2)cc1", "activity change (PNC), negative = inhibition": "inconclusive: -57.9%"},
      {"smiles": "CC(=C1C(=O)c2ccccc2C1=O)N1CCN(CCN=Cc2c(O)n(C)c(=O)n(C)c2=O)CC1", "activity change (PNC), negative = inhibition": "inconclusive: -54.1%"},
      {"smiles": "CC(C(=O)c1cn(C)c2ccccc12)c1ccccc1", "note": "(stereo unspecified)", "activity change (PNC), negative = inhibition": "inactive: 2.02%"},
      {"smiles": "CCCCN1C(=O)/C(=C/c2ccc(N3CCCCCC3)cc2)C(=O)NC1=S", "activity change (PNC), negative = inhibition": "inactive: -20.4%"},
      {"smiles": "Cc1noc(C)c1C(=O)N1CCC2(CC1)OCCO2", "activity change (PNC), negative = inhibition": "inconclusive: -37.8%"},
      {"smiles": "CCN(CC)C(=O)c1ccc(N2C(=O)C3CC=C(Cl)CC3C2=O)cc1", "note": "(stereo unspecified)", "activity change (PNC), negative = inhibition": "active: -85.6%"},
      {"smiles": "CCCCn1c(C)c(C(=O)OCC)c2c(CN3CCOCC3)c(O)ccc21", "activity change (PNC), negative = inhibition": "inactive: -19.4%"},
      {"smiles": "CN1CCN(S(=O)(=O)c2cnc(Cl)c(Br)c2)CC1", "activity change (PNC), negative = inhibition": "inactive: -20.7%"},
      {"smiles": "CCN(CC)CCOC(=O)C(O)(c1ccccc1)c1ccccc1", "activity change (PNC), negative = inhibition": "inconclusive: -33%"},
      {"smiles": "COc1ccc(CCn2c(O)c(C=NCc3ccc4c(c3)OCO4)c(=O)[nH]c2=O)cc1OC", "activity change (PNC), negative = inhibition": "inactive: 5.84%"},
      {"smiles": "O=C(Nc1ccc(Cl)cc1C(=O)c1ccccc1)c1ccco1", "activity change (PNC), negative = inhibition": "inactive: 76%"},
      {"smiles": "Cc1ccc(Cn2cc(C=O)c(-c3ccc(C)cc3)n2)cc1", "activity change (PNC), negative = inhibition": "inconclusive: -50.3%"},
      {"smiles": "CCN(CC)c1ccc(N=Cc2c(O)n(CCc3ccc(OC)c(OC)c3)c(=O)[nH]c2=O)cc1", "activity change (PNC), negative = inhibition": "inconclusive: -33.7%"}
    ]}
  ]
}
